# In PubChem BioAssay AID1508600 (Functional Genomics Laboratory (NCATS/FGL), 2020):
# The campaign covered roughly 53,000 sequences. About 3,700 (7%) were called active.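 Rule for the calls: active = gene knockdowns whose robust z-score for IL-1 alpha signal is at least 2 or at most -2, so actives lie on both sides; inactive = the rest.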 The list shows a part of the results.
# Assay: Components of the Cytosolic LPS Sensing Pathway: Gene Identification via Genome-wide siRNA Screen;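 note: robust z of the log signal after scaling to non-targeting control siRNA wells of the plate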
# Conditions: RAW264.7 macrophages, IL-1a HTRF, actives lie on both sides, screened at 100 nM (by protocol), cells primed 5 h with Pam3CSK4 first
# Summary of the method: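 Three distinct siRNAs per gene were tested singly at 100 nM in RAW264.7 macrophages. Following Pam3CSK4 priming and 24 hour LipidA transfection, IL-1a secretion was read by HTRF.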
row,Sequence,z-score
1,GGGACUCAAAAGUCAAGUGTT against Pramel48,inactive: 0.9
2,GGCGGCUGAAAGUUUUGCATT against Pklr,inactive: 0.94
3,GGUGACCUUUACCCUCACATT against Mocs1,inactive: -0.149
4,GCACAAACACCACUUUUCATT against Asb12,inactive: -0.373
5,GGAAUUUCUACUACAUCACTT against Hs6st3,inactive: 0.0202
6,GGCUGUGGAAAGAUGGACUTT against Ugt2b36,inactive: 0.254
7,GGAGCCUCCAAGUUGUAAGTT against Ifi27l2b,inactive: 0.748
8,GGAAACUGUUUAGGAAUUGTT against Pnpla3,inactive: 0.253
9,GGAUAUUCUUCCAGUCUUUTT against Pramel31,inactive: -0.177
10,GGACUUCCUGAAAGGCGAATT against H2-Q5,inactive: -0.388
11,GGACUUAAUAGUCUCUGGGTT against Gemin5,inactive: -0.616
12,CGGAUGAUUGUCACCCUGUTT against Mesp1,inactive: 0.436
13,GGACCACCACCGUCUAUUUTT against Adora3,inactive: -0.612
14,GGACUUAUUCGAUAUAGUATT against Nt5c1b,inactive: -1.23
15,GGUGUCCUCAAAGACUUUCTT against Pgc,inactive: -0.343
16,GGAAUAAAGAAUGGUAUACTT against Zfp280d,inactive: -0.0544
17,GGAGCUUCGGGAGAUGAUUTT against Fdxr,inactive: 0.357
18,GGAAAACAUUAAGAAGGGCTT against Ccn2,active: 3.41
19,GCUUGUUGCAUGCUUAUCUTT against Tiaf2,inactive: -0.933
20,GGUAUCUAAGUGCUGCACUTT against Baiap2,inactive: -0.293
21,GGUGGAACCUCUGAGAAAATT against Ccdc157,inactive: 0.559
22,GGAGCUGUCAUUUAAGAAATT against Sorbs2,active: 2.42

row,Sequence,z-score
1,GGUUCAAGGACACUUUCACTT against 0610012G03Rik,inactive: -0.137
2,CCACUGGUCCAUCCAAAUCTT against Cyp21a1,inactive: 1.47
3,GUUUGGCUUAGCUGCUUUCTT against Olfr494,inactive: 0.521
4,GGAUCAUUUGAAAUUGCUGTT against Dmac2l,active: 2.88
5,GGAUGGUAACCAUCAUAUUTT against Vmn1r54,inactive: -0.887
6,UGGAAUAAUUACCCAUGCUTT against Gm3696,inactive: 1.03
7,GGACAAAUUGAGAAAGACATT against C130026L21Rik,inactive: 1.12
8,GGAGAGAGUUUUUGUUUUUTT against Fam53c,inactive: 0.723
9,GCGAACAUCACGUCCGAUGTT against Minpp1,inactive: 0.595
10,GGGACUAGACAUUUCUGUGTT against Mien1,inactive: -0.36
11,GGGUAUUCAUUGAGUGGUCTT against Gnb4,inactive: -1.68
12,GCUGAUGUAAGUAUUCUAGTT against Pdcl,inactive: 0.1
13,GGACUCUCAGGUAAAUGCATT against Mlst8,inactive: -0.939
14,GGGCACAGGCGAACUAUGUTT against Arhgap25,inactive: -1.26
15,GGAAAACAAUUCGUCUGCCTT against Oit1,inactive: -0.463
16,GGGAGAUGUUGUCAGGGUCTT against Rnasel,inactive: -0.476
17,CGAAGUGGUUUUAUGUACUTT against Cdkn2b,active: -2.39
18,GGAUUCUUUGAUUCAAUGUTT against Tlm,inactive: 0.98
19,CGAAGAUAUUACUAUUCUGTT against Lama2,inactive: 1.65
20,GGUCGUCCAGCUGAAGAACTT against Mecr,inactive: 0.721
21,GCUGCUCUCCCUUUAUGACTT against Lao1,inactive: 0.435
22,CCACUUCUUUGCAUUUAAGTT against Slc28a3,inactive: 0.277

row,Sequence,z-score
1,GGAGGAUUAUUACAGAAGGTT against Lhx9,inactive: 1.57
2,GGUCCAUCAGGAAAAUCAATT against Obox6,inactive: 0.0445
3,GCGCAUCAACAGAGAGGUUTT against Lama2,inactive: 0.325
4,GCCAGCAACAGGAUGAUAUTT against Wnk1,inactive: 0.364
5,GGAAAUGGAUCCAGAAUAUTT against Smarca1,inactive: -1.12
6,GGUGACACAUUGUUUGUUGTT against Hagh,inactive: -0.458
7,CCUACAGAAGGUGAAUACUTT against Traf7,inactive: -1.78
8,GGCUGAAUAAAAUAAGUGUTT against Adra1a,inactive: -1.1
9,CCACAAGUUCCACACUCCATT against Olfr1163,inactive: 0.42
10,CCGGUCUCAAAAUUAAGAATT against Themis,inactive: -0.327
11,GGUGUUGUAAGUGAUAAGATT against Serpina5,inactive: -0.338
12,GGGAAUGACAGAAAUAUAATT against Golm1,inactive: 0.923
13,GCAUGGGUGAUCUCUGUAATT against Defb50,inactive: -0.186
14,CCUCGAAUCCAGUGUCAGATT against Fxyd5,inactive: -0.824
15,GGUUGGUGAUCAACAUCUCTT against Kcna6,inactive: -0.878
16,CCCACAGUAUAGAAUGUGATT against Aldh1a2,inactive: -1.27
17,GGUGGUCAUCAACACACAGTT against Caly,inactive: -0.536
18,CCUUAGCAGAAUUGAGUCGTT against Kti12,inactive: 1.33
19,CGCGUUGGCAGAAAUUGAATT against Nipbl,inactive: -1.96
20,GGUCUCACUGAAAAUGAAATT against Ces1g,inactive: -0.656
21,GGUACCAAAUUGUUUAACATT against Ndufv1,inactive: 1.22
22,GGUCAUAGAACUCUGUAUGTT against Slc4a8,inactive: -0.576

# Taken from above for reference:
row,Sequence,z-score
20,GGUCUCACUGAAAAUGAAATT against Ces1g,inactive: -0.656
21,GGUACCAAAUUGUUUAACATT against Ndufv1,inactive: 1.22
22,GGUCAUAGAACUCUGUAUGTT against Slc4a8,inactive: -0.576

# Next part.

row,Sequence,z-score
1,GGAAAAAUACUUGAUCUCCTT against Card10,inactive: 0.0392
2,GCUGUUGGGAUUGUACCACTT against Dhx9,inactive: -0.497
3,GCGAGUCUCACAUCAGUGATT against Tshz3,active: 2.68
4,CCUUAGGCAUGGUCUGGACTT against Gal3st2,inactive: 0.897
5,GGGCUUACCUAUGUCCCUCTT against Olfr406,inactive: -0.779
6,CCUUCUGGAGUACAUAUCCTT against Trip6,inactive: 0.16
7,GGUGUCUACUCUGAGUUGCTT against Pan2,inactive: 1.94
8,CGGCAAGCCCAAAAAGGUCTT against Dlx3,active: -2.34
9,GGAGGAAGAAAUGUUUCGCTT against Slc9a8,inactive: -1.67
10,GGGUCUGGUUUAUUCAUGUTT against Zic1,inactive: -1.22
11,GGAAGUAUGCAGAAGACGATT against Sertad4,inactive: 0.286
12,GGAGGACACUCAGAAGAAATT against Syne2,inactive: 0.972
13,CCAAGACAAGAGCGAUUAATT against Letmd1,inactive: 0.00625
14,CCUUGGUACUUCGAGUUUATT against Gpr87,inactive: 0.0711
15,GGUGAAGAAGACUCAUGAATT against Gnb1l,inactive: -0.875
16,GCCAACCCUGAAAACCCUUTT against Gc,active: -2.54
17,GGAGUUGGCUAAGCUCUCATT against Elmo2,inactive: -1.51
18,GCAUUUAAGGACCUUGUAATT against Olfr813,inactive: -1.5
19,GGCAUAAUCUUCCAUUGUCTT against Klhl23,inactive: 0.455
20,GGAAUCAGGACAUUAGUGATT against Olfr868,inactive: 0.359
21,CCUCCAUUGACGCAAUAUCTT against Mvk,inactive: -0.809
22,CCUGAUGCACGUGCUAAAGTT against Ripk1,inactive: 0.583

# 5 entries picked at random from the list so far:
row,Sequence,z-score
15,GGUGUCCUCAAAGACUUUCTT against Pgc,inactive: -0.343
17,CGAAGUGGUUUUAUGUACUTT against Cdkn2b,active: -2.39
4,GCCAGCAACAGGAUGAUAUTT against Wnk1,inactive: 0.364
5,GGAAAUGGAUCCAGAAUAUTT against Smarca1,inactive: -1.12
19,CGAAGAUAUUACUAUUCUGTT against Lama2,inactive: 1.65

# Later entries

row,Sequence,z-score
1,GCUGGGAAGGUGACGUAAUTT against Lrrc59,inactive: -0.481
2,GCCGUGGAUGUCAUUUACUTT against Depdc7,inactive: 1.21
3,GGAGCUGGAAGACACGAGATT against Ccdc113,inactive: -1.89
4,GGUUGUACUUGUUUUUCCUTT against Dtwd1,inactive: 1.35
5,CUCACAAGUCAAAGCCUACTT against Zfp182,inactive: 0.121
6,CCACCAAUGAUUUGAUGCATT against Gpr75,inactive: -0.0162
7,CGUAUCGAUGUGGAUAAUATT against Tpst1,inactive: 0.425
8,CCUAGCAACAUUCUUUAUGTT against Rps6ka3,inactive: 0.106
9,GCUGAUCACACCAUCCCUATT against Hccs,inactive: -0.789
10,GGACAACAGCUGAAGAACUTT against Slc35a1,inactive: -0.798
11,GCCACAACAAACCUACGACTT against Xpc,inactive: -1.32
12,GGCUGAAGAUGGAGAGAACTT against Tbca,inactive: 0.263
13,GGCUAUGCAAGUGUUCUCUTT against Scgb2b20,inactive: 0.103
14,GCUGAUGGUAAAUUCACAGTT against Serpinb3c,inactive: -1.01
15,GGCCAGCUUUUCCUAGAUGTT against C030006K11Rik,inactive: 0.00752
16,GCAAACUUUUUCUGUAAAGTT against Atg4a,inactive: 0.408
17,UAGUCGGCCACUUCAGAGATT against Olfr825,inactive: 1.35
18,GCUGACCUACAUCUCGAAGTT against Plekha2,inactive: 0.274
19,GCUCCAACAAGGCAUAAAATT against Dis3,inactive: -1.71
